Measurements reported in patent US11008290B2, “Halogenated quinoline derivatives as antimicrobial agents” (University of Florida Research Foundation, Incorporated, priority 2015, dated 2021).
Some results were stated once for a whole list of compounds, not compound by compound. Some ranges recur; such a range may be that of the whole group of compounds.

Key:
[1] = tested on: vancomycin-resistant Enterococcus faecium (VRE, ATCC 700221); test: Minimum inhibitory concentration (MIC) susceptibility assay, broth microdilution; format: cell-based; conditions: VRE 700221
Method: The minimum inhibitory concentration (MIC) for each compound was determined by the broth microdilution method as recommended by the Clinical and Laboratory Standards Institute (CLSI). In a 96-well plate, eleven two-fold serial dilutions of each compound were made in a final volume of 100 μL Luria Broth. Each well was inoculated with ˜10^5 bacterial cells at the initial time of incubation, prepared from a fresh log phase culture (OD600 of 0.5 to 1.0 depending on bacterial strain). […] The concentration range tested for each compound during this study was 0.10 to 100 μM. DMSO served as the vehicle and negative control in each microdilution MIC assay. DMSO was serially diluted with a top concentration of 1% v/v. Bacterial strains used: methicillin-resistant Staphylococcus aureus-2 (MRSA-2; clinical isolate from Shands Hospital in Gainesville, Fla.), methicillin-resistant Staphylococcus epidermidis (MRSE; ATCC 35984), vancomycin-resistant Enterococcus faecium (VRE, ATCC 700221).

[2] = tested on: MRSA-2 planktonic cells and biofilms; test: Calgary Biofilm Device (CBD) MBC/MBEC determination; format: cell-based, Staphylococcus aureus; conditions: Table 2, planktonic killing, first value of MBC/MBEC cell, listed as daptomycin
Method: Biofilm eradication experiments were performed using the Calgary Biofilm Device to determine MBC/MBEC values for various compounds of interest (Innovotech, product code: 19111). The Calgary device (96-well plate with lid containing 96 total pegs to establish biofilms; 1 peg/well) was inoculated with 125 μL of a mid-log phase culture diluted 1,000-fold in tryptic soy broth with 0.5% glucose (TSBG) to establish bacterial biofilms after incubation at 37° C. for 24 hours. The lid of the Calgary device was then removed, washed and transferred to another 96-well plate containing 2-fold serial dilutions of the test compounds (the “challenge plate”). The total volume of media with compound in each well in the challenge plate was 150 μL. The Calgary device was then incubated at 37° C. for 24 hours. The lid was then removed from the challenge plate and MBC/MBEC values were determined using different final assays. […] The MBC values were determined as the concentration giving a lack of visible bacterial growth (e.g., turbidity). For determination of MBEC values, the Calgary device lid (with attached pegs/treated biofilms) was transferred to a new 96-well plate containing 150 μL of fresh TSBG media in each well and incubated for 24 hours at 37° C. to allow viable biofilms to grow and disperse resulting in turbidity after the incubation period. […]

Structure (SMILES) | fold more potent than HQ-1 (MIC) [1] | MRSA-2 Clinical Isolate MBC [2] [µM]
Oc1c(Br)cc(Br)c2ccc(CNc3cccc(Cl)c3)nc12 [HQ-4] | 3- to 6 fold | 
Oc1c(Br)cc(Br)c2ccc(CNc3ccc(Br)cc3)nc12 [HQ-6] | 3- to 6 fold | 
CCCCCCCCCC(=O)N[C@@H](Cc1c[nH]c2ccccc12)C(=O)N[C@H](CC(N)=O)C(=O)N[C@@H](CC(=O)O)C(=O)N[C@@H]1C(=O)NCC(=O)N[C@@H](CCCN)C(=O)N[C@@H](CC(=O)O)C(=O)N[C@H](C)C(=O)N[C@@H](CC(=O)O)C(=O)NCC(=O)N[C@H](CO)C(=O)N[C@@H]([C@H](C)CC(=O)O)C(=O)N[C@@H](CC(=O)c2ccccc2N)C(=O)O[C@@H]1C [Daptomycin, reference compound] |  | 3.0 to 62.5
Oc1c(Br)cc(Br)c2ccc(CNc3cc(Cl)cc(Cl)c3)nc12 [HQ-5] | 3- to 6 fold | 
